Experimental data from the supplement of paper PMC12819154, “High-throughput peptide-centric local stability assay extends protein–ligand identification to membrane proteins, tissues and bacteria” (Nature Structural & Molecular Biology, 2025).
Some of the results follow. Most values lie at the level of the controls, where differences are scatter.

The chains behind the UniProt entries cited, without tags or fusion partners. Where a name states a change or a piece, a line headed by the entry shows the natural chain unless it says otherwise.
UniProt Q96BY7: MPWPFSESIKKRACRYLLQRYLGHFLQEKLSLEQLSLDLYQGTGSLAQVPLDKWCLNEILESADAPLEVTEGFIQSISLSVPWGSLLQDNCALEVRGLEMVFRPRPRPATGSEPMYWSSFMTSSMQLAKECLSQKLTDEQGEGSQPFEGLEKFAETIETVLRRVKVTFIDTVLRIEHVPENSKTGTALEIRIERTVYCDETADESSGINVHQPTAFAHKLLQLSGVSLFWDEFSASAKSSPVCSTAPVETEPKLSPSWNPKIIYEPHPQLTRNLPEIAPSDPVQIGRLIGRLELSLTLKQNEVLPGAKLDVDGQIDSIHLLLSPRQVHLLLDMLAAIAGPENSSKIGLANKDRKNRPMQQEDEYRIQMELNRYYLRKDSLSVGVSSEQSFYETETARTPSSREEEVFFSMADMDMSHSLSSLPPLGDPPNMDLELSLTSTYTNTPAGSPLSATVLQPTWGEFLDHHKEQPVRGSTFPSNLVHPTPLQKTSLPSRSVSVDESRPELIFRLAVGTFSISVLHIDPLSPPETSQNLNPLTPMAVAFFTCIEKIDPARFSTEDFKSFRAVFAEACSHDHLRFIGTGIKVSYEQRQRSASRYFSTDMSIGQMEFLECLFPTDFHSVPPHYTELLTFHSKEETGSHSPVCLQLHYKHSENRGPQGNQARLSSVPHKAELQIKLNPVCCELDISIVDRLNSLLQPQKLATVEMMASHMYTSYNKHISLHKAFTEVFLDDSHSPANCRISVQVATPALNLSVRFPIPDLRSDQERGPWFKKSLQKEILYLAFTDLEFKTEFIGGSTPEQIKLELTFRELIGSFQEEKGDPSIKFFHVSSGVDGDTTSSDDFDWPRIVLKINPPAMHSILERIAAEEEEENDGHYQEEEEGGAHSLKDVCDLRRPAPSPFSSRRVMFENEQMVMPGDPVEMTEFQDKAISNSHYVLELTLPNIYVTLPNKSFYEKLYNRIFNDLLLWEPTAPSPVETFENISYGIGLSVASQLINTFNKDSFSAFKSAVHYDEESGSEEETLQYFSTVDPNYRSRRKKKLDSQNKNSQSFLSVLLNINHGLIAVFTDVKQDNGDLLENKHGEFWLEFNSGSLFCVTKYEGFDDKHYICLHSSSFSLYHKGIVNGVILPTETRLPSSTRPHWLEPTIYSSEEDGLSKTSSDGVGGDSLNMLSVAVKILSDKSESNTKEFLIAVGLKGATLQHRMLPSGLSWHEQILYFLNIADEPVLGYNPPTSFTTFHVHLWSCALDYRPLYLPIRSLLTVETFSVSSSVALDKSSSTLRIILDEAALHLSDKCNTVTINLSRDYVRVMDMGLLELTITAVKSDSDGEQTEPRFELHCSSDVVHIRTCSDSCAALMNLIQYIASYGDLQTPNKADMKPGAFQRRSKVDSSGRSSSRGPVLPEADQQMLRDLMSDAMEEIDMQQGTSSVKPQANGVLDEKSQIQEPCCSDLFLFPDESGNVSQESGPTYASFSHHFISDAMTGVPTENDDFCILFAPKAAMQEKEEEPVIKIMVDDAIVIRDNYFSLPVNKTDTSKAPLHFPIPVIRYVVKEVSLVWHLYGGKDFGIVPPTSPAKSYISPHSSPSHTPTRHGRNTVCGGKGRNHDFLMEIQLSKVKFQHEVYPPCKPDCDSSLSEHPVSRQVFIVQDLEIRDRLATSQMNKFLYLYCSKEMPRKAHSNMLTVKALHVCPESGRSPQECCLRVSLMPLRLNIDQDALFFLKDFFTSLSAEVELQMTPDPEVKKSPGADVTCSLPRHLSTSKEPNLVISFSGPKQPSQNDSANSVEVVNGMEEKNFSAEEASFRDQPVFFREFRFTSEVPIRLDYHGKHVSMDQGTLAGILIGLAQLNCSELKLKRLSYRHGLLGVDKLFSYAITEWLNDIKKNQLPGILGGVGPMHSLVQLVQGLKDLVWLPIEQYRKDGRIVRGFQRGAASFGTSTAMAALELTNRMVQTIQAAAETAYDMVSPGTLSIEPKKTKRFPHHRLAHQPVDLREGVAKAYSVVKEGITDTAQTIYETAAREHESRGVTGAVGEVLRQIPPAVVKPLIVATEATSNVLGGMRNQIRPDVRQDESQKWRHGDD
UniProt Q96EK7: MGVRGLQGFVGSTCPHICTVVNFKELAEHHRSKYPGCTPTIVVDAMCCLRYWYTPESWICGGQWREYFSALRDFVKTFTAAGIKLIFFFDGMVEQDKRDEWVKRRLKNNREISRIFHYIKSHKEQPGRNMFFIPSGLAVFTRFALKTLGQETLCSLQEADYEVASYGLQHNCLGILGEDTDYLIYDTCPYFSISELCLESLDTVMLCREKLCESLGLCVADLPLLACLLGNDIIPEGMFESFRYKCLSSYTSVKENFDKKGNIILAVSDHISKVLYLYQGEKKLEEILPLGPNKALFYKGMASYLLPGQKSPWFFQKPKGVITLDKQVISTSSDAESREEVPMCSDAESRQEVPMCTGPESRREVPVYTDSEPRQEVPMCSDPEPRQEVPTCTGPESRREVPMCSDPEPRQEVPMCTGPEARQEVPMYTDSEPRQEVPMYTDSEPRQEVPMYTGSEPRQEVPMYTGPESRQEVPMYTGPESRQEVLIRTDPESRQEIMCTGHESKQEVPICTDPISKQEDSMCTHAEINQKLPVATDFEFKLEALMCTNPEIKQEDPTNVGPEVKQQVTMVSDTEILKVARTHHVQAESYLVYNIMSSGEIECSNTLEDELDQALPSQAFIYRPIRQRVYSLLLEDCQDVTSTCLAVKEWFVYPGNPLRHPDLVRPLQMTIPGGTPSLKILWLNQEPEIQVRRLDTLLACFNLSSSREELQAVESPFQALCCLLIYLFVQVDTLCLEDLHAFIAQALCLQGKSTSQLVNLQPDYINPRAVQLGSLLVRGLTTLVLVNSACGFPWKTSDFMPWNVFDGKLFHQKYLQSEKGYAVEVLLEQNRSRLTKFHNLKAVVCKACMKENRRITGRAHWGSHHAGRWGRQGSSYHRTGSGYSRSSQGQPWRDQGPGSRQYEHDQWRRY
UniProt Q96AT1: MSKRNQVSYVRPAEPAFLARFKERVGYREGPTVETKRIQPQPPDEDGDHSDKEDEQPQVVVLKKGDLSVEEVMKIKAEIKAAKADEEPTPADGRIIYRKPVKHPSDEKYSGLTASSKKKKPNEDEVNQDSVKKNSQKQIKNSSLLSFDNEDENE
UniProt Q96B70: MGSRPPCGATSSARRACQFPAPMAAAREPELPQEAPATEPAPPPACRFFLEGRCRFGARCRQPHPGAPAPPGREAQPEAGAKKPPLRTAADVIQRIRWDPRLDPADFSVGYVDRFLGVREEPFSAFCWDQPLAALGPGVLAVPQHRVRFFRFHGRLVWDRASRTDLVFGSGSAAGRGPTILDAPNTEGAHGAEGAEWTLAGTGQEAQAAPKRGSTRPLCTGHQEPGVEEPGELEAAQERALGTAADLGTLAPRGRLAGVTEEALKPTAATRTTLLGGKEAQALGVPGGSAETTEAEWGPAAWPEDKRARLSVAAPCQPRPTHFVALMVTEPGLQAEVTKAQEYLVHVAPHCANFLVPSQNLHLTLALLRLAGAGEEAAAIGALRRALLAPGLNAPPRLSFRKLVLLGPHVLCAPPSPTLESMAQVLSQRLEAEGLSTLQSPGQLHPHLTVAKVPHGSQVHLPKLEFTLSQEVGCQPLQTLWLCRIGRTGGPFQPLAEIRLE
UniProt Q96B54: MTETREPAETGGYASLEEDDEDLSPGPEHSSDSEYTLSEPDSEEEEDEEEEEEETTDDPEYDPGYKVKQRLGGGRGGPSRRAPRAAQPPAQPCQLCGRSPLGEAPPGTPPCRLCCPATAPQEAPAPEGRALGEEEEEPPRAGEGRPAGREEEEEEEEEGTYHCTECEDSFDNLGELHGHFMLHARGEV
UniProt Q96A57: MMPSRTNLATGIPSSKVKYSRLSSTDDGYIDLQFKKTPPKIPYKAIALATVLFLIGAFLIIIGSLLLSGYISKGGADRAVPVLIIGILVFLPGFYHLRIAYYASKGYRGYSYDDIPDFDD
UniProt Q96FV0: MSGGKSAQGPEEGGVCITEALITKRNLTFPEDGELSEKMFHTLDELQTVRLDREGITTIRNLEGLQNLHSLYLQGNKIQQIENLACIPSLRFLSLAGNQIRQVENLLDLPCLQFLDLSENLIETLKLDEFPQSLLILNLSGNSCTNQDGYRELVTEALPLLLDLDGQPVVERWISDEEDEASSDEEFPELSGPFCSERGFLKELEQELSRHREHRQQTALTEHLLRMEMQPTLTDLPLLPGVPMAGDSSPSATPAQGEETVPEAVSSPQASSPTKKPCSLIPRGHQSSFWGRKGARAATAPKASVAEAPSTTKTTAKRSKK
UniProt Q93034, whole entry: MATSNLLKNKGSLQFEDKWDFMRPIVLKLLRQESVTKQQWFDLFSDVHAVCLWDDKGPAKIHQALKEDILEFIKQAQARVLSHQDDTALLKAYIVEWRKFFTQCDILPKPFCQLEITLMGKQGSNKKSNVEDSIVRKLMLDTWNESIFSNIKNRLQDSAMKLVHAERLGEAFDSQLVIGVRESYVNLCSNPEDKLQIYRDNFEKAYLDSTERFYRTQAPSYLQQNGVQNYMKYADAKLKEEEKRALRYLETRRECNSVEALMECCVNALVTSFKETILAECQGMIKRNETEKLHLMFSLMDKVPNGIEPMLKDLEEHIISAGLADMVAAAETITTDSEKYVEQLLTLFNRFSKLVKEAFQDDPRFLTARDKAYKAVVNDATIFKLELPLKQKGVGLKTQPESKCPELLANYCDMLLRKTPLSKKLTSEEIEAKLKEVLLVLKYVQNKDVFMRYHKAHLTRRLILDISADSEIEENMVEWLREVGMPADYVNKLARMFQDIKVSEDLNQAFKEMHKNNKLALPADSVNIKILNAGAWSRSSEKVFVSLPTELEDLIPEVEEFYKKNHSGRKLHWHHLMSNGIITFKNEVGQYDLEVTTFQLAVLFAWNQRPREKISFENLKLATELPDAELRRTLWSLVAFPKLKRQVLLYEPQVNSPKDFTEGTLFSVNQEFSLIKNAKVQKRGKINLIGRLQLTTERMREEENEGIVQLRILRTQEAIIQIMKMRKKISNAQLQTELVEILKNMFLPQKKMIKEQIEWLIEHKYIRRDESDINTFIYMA
UniProt Q96F86: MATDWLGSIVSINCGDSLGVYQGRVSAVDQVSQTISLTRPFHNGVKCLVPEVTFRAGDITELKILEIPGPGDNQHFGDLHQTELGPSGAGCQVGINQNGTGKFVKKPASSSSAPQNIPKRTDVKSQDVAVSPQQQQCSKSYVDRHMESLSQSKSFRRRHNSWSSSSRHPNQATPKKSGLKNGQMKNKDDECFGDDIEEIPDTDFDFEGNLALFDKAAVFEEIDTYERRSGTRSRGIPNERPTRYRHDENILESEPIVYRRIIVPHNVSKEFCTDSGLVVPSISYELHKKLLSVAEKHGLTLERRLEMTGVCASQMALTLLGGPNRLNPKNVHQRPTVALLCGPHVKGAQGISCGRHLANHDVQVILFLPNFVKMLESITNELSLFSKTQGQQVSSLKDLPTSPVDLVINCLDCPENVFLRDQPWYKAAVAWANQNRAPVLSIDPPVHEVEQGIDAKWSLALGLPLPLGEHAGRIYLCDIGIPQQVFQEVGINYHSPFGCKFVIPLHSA
UniProt Q96ED9: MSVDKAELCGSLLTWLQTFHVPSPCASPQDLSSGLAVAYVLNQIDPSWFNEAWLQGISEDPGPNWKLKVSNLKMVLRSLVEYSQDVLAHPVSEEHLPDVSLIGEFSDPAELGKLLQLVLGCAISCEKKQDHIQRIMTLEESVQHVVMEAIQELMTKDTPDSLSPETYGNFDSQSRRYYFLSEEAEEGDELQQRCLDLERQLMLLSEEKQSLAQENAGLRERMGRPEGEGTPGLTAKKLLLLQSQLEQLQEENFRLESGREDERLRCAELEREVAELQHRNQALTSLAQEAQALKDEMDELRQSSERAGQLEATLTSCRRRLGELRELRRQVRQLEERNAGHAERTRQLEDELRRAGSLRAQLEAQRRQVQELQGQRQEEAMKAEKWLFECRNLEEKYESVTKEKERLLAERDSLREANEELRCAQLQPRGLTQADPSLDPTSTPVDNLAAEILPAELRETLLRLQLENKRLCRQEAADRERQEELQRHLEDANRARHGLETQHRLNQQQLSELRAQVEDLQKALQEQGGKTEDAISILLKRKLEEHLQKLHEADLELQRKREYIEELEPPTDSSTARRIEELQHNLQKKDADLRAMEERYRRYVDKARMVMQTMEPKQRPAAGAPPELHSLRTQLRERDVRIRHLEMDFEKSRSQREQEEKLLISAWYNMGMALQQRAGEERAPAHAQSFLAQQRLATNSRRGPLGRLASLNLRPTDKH

compound: CN[C@@H]1C[C@H]2O[C@@](C)([C@@H]1OC)n1c3ccccc3c3c4c(c5c6ccccc6n2c5c31)C(=O)NC4 [staurosporine]; assay: log2 fold change of tryptic peptide abundance, ligand vs vehicle (limited proteolysis) (log2 ratio); higher = more trypsin-susceptible (destabilized); conditions: ligand concentration: 20 uM; sample: K562 cleared lysate; digestion: 4 min, 22 C (HT-PELSA RT4min, Orbitrap Astral)

Row | Target | log2 fold change
1 | ATG2B (peptide sequence: EPNLVISFSGPK, peptide start residue: 1761) (UniProt Q96BY7) | 0.485
2 | UniProt Q96EK7 (peptide sequence: QEDSMCTHAEINQK, peptide start residue: 518) | -0.483
3 | DNAJA3 (peptide sequence: GGPTVDPEELFR, peptide start residue: 176) (UniProt Q96EY1) | -0.21
4 | KIAA1143 (peptide sequence: PVKHPSDEK, peptide start residue: 100) (UniProt Q96AT1) | -0.569
5 | LENG9 (peptide sequence: TDLVFGSGSAAGR, peptide start residue: 164) (UniProt Q96B70) | -0.192
6 | ZNF428 (peptide sequence: AAQPPAQPCQLCGR, peptide start residue: 85) (UniProt Q96B54) | -0.169
7 | UniProt Q96A57 (peptide sequence: TNLATGIPSSK, peptide start residue: 6) | -0.0374
8 | UniProt Q96FV0 (peptide sequence: MFHTLDELQTVR, peptide start residue: 39) | 0.209
9 | CUL5 (peptide sequence: MREEENEGIVQLR, peptide start residue: 699) (UniProt Q93034) | -0.348
10 | EDC3 (peptide sequence: AAVFEEIDTYERR, peptide start residue: 216) (UniProt Q96F86) | 0.132
11 | HOOK2 (peptide sequence: EVAELQHR, peptide start residue: 272) (UniProt Q96ED9) | -0.44

2 entries picked at random from those above:
Row | Target | log2 fold change
3 | DNAJA3 (peptide sequence: GGPTVDPEELFR, peptide start residue: 176) (UniProt Q96EY1) | -0.21
9 | CUL5 (peptide sequence: MREEENEGIVQLR, peptide start residue: 699) (UniProt Q93034) | -0.348
